Reference: PMC6355934
These are yes or no findings as the source states them, for the method shown. Binding seen in cells or lysates may run through a third protein. Some results given as binding are weak or reduced against the parent protein; the word gives no strength. For part of these data: Sequences can lack the tags named with a protein.

The chains behind the UniProt entries cited, without tags or fusion partners.
UniProt O75376: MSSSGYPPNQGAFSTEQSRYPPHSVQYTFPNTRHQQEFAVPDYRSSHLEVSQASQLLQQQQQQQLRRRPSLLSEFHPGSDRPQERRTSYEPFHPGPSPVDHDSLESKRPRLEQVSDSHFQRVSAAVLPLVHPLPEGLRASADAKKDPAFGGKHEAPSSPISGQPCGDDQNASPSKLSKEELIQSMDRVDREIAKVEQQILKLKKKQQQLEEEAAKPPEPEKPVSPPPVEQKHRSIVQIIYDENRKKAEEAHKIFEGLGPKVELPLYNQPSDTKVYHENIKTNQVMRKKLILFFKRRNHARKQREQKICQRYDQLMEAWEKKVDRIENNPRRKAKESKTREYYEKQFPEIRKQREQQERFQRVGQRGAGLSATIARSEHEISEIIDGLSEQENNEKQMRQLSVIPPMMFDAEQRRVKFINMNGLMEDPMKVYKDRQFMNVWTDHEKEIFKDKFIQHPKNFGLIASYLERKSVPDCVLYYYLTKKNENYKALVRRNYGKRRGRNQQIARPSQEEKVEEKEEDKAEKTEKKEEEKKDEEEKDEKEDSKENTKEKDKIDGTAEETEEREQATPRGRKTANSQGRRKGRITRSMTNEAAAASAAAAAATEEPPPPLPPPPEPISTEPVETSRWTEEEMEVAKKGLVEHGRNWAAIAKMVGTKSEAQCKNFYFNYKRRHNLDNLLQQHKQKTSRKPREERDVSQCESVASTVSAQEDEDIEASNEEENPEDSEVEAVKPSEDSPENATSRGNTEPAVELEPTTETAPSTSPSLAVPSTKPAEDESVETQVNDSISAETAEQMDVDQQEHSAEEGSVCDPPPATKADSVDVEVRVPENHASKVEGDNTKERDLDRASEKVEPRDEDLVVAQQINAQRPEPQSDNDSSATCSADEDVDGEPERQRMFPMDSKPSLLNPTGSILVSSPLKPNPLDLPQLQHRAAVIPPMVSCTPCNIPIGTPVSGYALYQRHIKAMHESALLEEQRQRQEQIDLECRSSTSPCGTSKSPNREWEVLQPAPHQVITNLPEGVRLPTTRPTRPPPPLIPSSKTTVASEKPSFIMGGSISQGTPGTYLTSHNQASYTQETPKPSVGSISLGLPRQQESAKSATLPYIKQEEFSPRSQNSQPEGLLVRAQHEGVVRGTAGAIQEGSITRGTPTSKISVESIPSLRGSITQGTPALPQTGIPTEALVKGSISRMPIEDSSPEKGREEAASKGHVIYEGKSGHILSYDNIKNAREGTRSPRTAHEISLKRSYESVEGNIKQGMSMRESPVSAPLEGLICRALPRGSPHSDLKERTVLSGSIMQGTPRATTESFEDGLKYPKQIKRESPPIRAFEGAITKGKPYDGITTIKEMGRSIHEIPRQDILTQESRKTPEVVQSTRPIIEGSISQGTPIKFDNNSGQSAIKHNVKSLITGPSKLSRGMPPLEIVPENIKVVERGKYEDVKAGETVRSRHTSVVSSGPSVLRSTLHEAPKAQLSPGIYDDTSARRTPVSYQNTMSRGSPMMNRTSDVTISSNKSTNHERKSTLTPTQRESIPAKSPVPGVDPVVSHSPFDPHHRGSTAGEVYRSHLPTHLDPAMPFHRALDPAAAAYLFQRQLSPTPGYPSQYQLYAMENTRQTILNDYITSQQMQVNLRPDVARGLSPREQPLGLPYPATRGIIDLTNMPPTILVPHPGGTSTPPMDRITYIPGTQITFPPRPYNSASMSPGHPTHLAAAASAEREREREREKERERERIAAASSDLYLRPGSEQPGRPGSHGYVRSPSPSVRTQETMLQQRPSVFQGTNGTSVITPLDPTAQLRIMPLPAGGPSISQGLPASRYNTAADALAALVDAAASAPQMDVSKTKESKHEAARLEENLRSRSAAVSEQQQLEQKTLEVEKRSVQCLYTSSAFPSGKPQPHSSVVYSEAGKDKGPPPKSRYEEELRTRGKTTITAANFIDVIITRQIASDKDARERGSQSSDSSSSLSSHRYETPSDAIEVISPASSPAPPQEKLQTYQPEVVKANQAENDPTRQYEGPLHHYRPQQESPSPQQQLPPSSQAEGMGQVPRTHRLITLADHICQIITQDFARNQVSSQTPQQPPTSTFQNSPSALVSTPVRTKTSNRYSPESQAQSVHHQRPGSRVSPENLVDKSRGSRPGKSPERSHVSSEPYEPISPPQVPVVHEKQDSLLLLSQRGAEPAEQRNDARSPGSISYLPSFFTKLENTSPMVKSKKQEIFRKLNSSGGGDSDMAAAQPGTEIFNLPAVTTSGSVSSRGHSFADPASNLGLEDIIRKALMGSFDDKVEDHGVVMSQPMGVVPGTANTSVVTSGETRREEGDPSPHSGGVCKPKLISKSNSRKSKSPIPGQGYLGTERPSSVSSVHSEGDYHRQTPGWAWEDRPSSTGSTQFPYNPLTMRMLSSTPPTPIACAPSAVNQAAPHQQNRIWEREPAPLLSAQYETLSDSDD

T1: TBLR1 (human (endogenous in HMEC-RAS-ZEB1)) (UniProt Q9BZK7)
T1 sequence: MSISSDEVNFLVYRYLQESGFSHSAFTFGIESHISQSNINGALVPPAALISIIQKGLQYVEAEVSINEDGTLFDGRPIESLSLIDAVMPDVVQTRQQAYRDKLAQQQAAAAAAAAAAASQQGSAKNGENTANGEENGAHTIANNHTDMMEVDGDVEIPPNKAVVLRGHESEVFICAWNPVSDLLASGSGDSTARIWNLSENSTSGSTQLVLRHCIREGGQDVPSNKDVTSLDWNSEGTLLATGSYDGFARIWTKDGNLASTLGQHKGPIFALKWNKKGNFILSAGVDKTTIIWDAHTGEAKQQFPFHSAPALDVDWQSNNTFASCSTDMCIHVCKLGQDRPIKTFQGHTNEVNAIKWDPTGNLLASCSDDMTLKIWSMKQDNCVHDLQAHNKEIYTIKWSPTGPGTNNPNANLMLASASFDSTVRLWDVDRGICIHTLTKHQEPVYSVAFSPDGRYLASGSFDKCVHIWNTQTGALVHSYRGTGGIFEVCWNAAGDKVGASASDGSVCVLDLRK

T2: Flag-tagged Transducin beta-like 1 (TBL1) (human) (UniProt O60907)
T2 sequence: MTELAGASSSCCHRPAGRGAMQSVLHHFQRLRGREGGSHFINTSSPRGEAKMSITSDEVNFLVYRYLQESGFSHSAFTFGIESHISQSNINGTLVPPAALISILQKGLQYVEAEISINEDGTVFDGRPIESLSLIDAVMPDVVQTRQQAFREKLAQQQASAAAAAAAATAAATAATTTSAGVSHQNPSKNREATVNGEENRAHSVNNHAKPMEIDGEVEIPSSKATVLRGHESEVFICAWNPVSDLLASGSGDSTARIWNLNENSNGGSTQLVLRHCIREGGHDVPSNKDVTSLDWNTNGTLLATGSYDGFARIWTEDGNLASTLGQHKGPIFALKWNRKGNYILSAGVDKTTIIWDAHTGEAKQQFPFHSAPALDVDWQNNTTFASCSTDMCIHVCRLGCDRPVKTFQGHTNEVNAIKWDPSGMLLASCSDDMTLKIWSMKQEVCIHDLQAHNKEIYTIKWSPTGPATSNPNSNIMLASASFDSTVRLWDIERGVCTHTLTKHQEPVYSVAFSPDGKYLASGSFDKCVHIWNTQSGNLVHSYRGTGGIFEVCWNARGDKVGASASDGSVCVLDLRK


How the values were obtained:
[1] = target: NCoR1 (human (endogenous in HMEC-RAS-ZEB1)) (UniProt O75376); experiment: co-IP; whole cell extracts of HMEC-RAS-ZEB1 cells immunoprecipitated with anti-ZEB1, anti-TBL1, anti-TBLR1, anti-NCoR or control IgG; precipitates and 3% of input analysed by western blot
[2] = target: T1, TBLR1 (human (endogenous in HMEC-RAS-ZEB1)); experiment: as above
[3] = target: T2, Flag-tagged Transducin beta-like 1 (TBL1) (human); experiment: co-IP; HEK293T cells transiently co-transfected with Flag-TBL1 and HA-ZEB1; cell extracts immunoprecipitated with anti-Flag or control IgG; western blot

Row | binding [1] | binding [2] | binding [3] | Binder
1 | binds | binds | – | endogenous TBL1 protein (protein, UniProt O60907 1-577) MTELAGASSSCCHRPAGRGAMQSVLHHFQRLRGREGGSHFINTSSPRGEAKMSITSDEVNFLVYRYLQESGFSHSAFTFGIESHISQSNINGTLVPPAALISILQKGLQYVEAEISINEDGTVFDGRPIESLSLIDAVMPDVVQTRQQAFREKLAQQQASAAAAAAAATAAATAATTTSAGVSHQNPSKNREATVNGEENRAHSVNNHAKPMEIDGEVEIPSSKATVLRGHESEVFICAWNPVSDLLASGSGDSTARIWNLNENSNGGSTQLVLRHCIREGGHDVPSNKDVTSLDWNTNGTLLATGSYDGFARIWTEDGNLASTLGQHKGPIFALKWNRKGNYILSAGVDKTTIIWDAHTGEAKQQFPFHSAPALDVDWQNNTTFASCSTDMCIHVCRLGCDRPVKTFQGHTNEVNAIKWDPSGMLLASCSDDMTLKIWSMKQEVCIHDLQAHNKEIYTIKWSPTGPATSNPNSNIMLASASFDSTVRLWDIERGVCTHTLTKHQEPVYSVAFSPDGKYLASGSFDKCVHIWNTQSGNLVHSYRGTGGIFEVCWNARGDKVGASASDGSVCVLDLRK
2 | – | – | binds | HA-tagged ZEB1 (protein, UniProt P37275 1-1124) MADGPRCKRRKQANPRRNNVTNYNTVVETNSDSDDEDKLHIVEEESVTDAADCEGVPEDDLPTDQTVLPGRSSEREGNAKNCWEDDRKEGQEILGPEAQADEAGCTVKDDECESDAENEQNHDPNVEEFLQQQDTAVIFPEAPEEDQRQGTPEASGHDENGTPDAFSQLLTCPYCDRGYKRFTSLKEHIKYRHEKNEDNFSCSLCSYTFAYRTQLERHMTSHKSGRDQRHVTQSGCNRKFKCTECGKAFKYKHHLKEHLRIHSGEKPYECPNCKKRFSHSGSYSSHISSKKCISLIPVNGRPRTGLKTSQCSSPSLSASPGSPTRPQIRQKIENKPLQEQLSVNQIKTEPVDYEFKPIVVASGINCSTPLQNGVFTGGGPLQATSSPQGMVQAVVLPTVGLVSPISINLSDIQNVLKVAVDGNVIRQVLENNQANLASKEQETINASPIQQGGHSVISAISLPLVDQDGTTKIIINYSLEQPSQLQVVPQNLKKENPVATNSCKSEKLPEDLTVKSEKDKSFEGGVNDSTCLLCDDCPGDINALPELKHYDLKQPTQPPPLPAAEAEKPESSVSSATGDGNLSPSQPPLKNLLSLLKAYYALNAQPSAEELSKIADSVNLPLDVVKKWFEKMQAGQISVQSSEPSSPEPGKVNIPAKNNDQPQSANANEPQDSTVNLQSPLKMTNSPVLPVGSTTNGSRSSTPSPSPLNLSSSRNTQGYLYTAEGAQEEPQVEPLDLSLPKQQGELLERSTITSVYQNSVYSVQEEPLNLSCAKKEPQKDSCVTDSEPVVNVIPPSANPINIAIPTVTAQLPTIVAIADQNSVPCLRALAANKQTILIPQVAYTYSTTVSPAVQEPPLKVIQPNGNQDERQDTSSEGVSNVEDQNDSDSTPPKKKMRKTENGMYACDLCDKIFQKSSSLLRHKYEHTGKRPHECGICKKAFKHKHHLIEHMRLHSGEKPYQCDKCGKRFSHSGSYSQHMNHRYSYCKREAEERDSTEQEEAGPEILSNEHVGARASPSQGDSDERESLTREEDEDSEKEEEEEDKEMEELQEEKECEKPQGDEEEEEEEEEVEEEEVEEAENEGEEAKTEGLMKDDRAESQASSLGQKVGESSEQVSEEKTNEA
